Measurements as given in PubChem BioAssay AID493014 (National Center for Advancing Translational Sciences (NCATS), 2011).
The other results are listed elsewhere or left out. Further columns of the screen follow, without active or inactive calls. Compounds called inactive in the main read-out are mostly missing here. Potencies come from curve fits of mixed quality, noted in brackets.

Test: qHTS Assay to Find Inhibitors of Chronic Active B-Cell Receptor Signaling
Conditions: ABC-DLBCL IkBa-CBG/CBR reporter, luminescence ratio (green luciferase fused to IkBa over red control in TMD8 lymphoma cells), 4 h
Outline: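 Doxycycline induced both beetle luciferases in TMD8 lymphoma cells; IKK-driven degradation limits the IkappaBalpha-fused green signal, while red luminescence normalises for cell number and nonspecific effects. Compounds tested up to 46 uM, 4 hrs.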

[1] = measured here: CBR red luminescence, cell number
[2] = measured here: IkBa-CBG green luminescence

SMILES: Cn1c(N)nc2ccccc2c1=O
- AC50 [1]: 2 µM [falling, partial curve, poor fit]

SMILES: Oc1ccc(CNc2ccccc2F)c2cccnc12
- AC50 [1]: 12.6 µM [rising, partial curve, poor fit]
- AC50 [2]: 25.1 µM [falling, partial curve, poor fit]

SMILES: CCOP1(=O)C=C(C(C)(C)C)OC1c1ccc(F)cc1 (centres undefined)
- AC50 [1]: 1.03 µM [rising, full curve, poor fit]

SMILES: O=C(/C=C/c1ccccc1)NNC1=NS(=O)(=O)c2ccccc21
- AC50 [1]: 35.5 µM [falling, single point]

SMILES: Cc1ccc2oc3nc(C)c(C(=O)O)cc3c(=O)c2c1
- AC50 [1]: 0.398 µM [falling, full curve, poor fit]

SMILES: CC(=O)c1ccc(N2CCN(C(=O)Cc3cccs3)CC2)cc1
- AC50 [1]: 6.31 µM [rising, single point]

SMILES: CC1CCN(c2nc(N3CCCCC3)nc(N3CCCCC3)n2)CC1
- AC50 [1]: 3.55 µM [rising, partial curve, poor fit]

SMILES: COc1ccccc1NC(=O)Nc1ccnn1C1CCN(C(=O)c2cccnc2)CC1
- AC50 [1]: 11.2 µM [falling, single point]

SMILES: CCOC(=O)c1ccc(-n2nc(C)cc2C)cc1
- AC50 [1]: 8.91 µM [rising, partial curve, poor fit]

SMILES: COc1ccc(CCNc2nc(N3CCCCC3)nc(N3CCCCC3)n2)cc1OC
- AC50 [1]: 0.82 µM [rising, full curve, poor fit]

SMILES: CC(=O)Nc1ccc(NC(=O)c2ccc3c(c2)CCN3S(C)(=O)=O)cc1
- AC50 [1]: 35.5 µM [rising, single point]

SMILES: C=CCNCCCCOc1ccc(OCc2ccccc2)cc1
- AC50 [1]: 1.41 µM [rising, partial curve, poor fit]

SMILES: CCC(C(=O)Nc1sc(C(N)=O)c(C)c1C(=O)OC)c1ccccc1 (centres undefined)
- AC50 [1]: 17.8 µM [falling, single point]

SMILES: CCn1nnc(NC(=O)C(c2ccccc2)c2ccccc2)n1
- AC50 [1]: 12.6 µM [falling, single point]

SMILES: COc1ccc(Br)cc1CNC(=O)C1CCCN(S(C)(=O)=O)C1 (centres undefined)
- AC50 [1]: 0.13 µM [rising, full curve, poor fit]

SMILES: ClCc1ncc(-c2ccc(Cl)cc2)o1
- AC50 [1]: 5.62 µM [falling, full curve, poor fit]

SMILES: CNc1ncnc2c1cnn2-c1ccc(C)c(C)c1
- AC50 [1]: 15.8 µM [falling, single point]

SMILES: CCOc1ccc(OCC)c(NC(=O)C2COc3ccccc3O2)c1 (centres undefined)
- AC50 [1]: 5.62 µM [rising, single point]

SMILES: CN(C)CCCNc1cc(C(C)(C)C)nc2c(-c3ccc(Cl)cc3)cnn12
- AC50 [1]: 35.5 µM [falling, single point]

SMILES: CC(C)(C=O)C1=CC(=O)c2ccccc2C1=O
- AC50 [1]: 9.2 µM [falling, partial curve]
- AC50 [2]: 23.1 µM [rising, single point]

SMILES: CCC(=O)Nc1nc(C)c(-c2csc(Nc3ccc(C(=O)O)cc3)n2)s1
- AC50 [1]: 2 µM [falling, full curve]

SMILES: CN(C)C(=O)c1ccc(COc2ccccc2Br)o1
- AC50 [1]: 3.66 µM [rising, single point]

SMILES: O=C(c1ccc(-c2cccc(Cl)c2)o1)N1CCN(c2ccc([N+](=O)[O-])cc2)CC1
- AC50 [1]: 6.51 µM [rising, single point]

SMILES: CCCCOC(=O)c1ccc(Nc2ncnc3nc[nH]c23)cc1
- AC50 [1]: 11.6 µM [rising, partial curve]

SMILES: COCc1cc(C)nc(SCC(=O)Nc2ccc3c(c2)OCO3)c1C#N
- AC50 [1]: 0.651 µM [rising, partial curve, poor fit]

SMILES: CCN=c1scc(C)n1/N=C/c1ccsc1
- AC50 [1]: 2 µM [rising, full curve]

SMILES: Cc1ccc(NC(=O)c2oc3ccccc3c2NC(=O)C2CC2)cc1
- AC50 [1]: 4.47 µM [falling, full curve, poor fit]

SMILES: CC(=O)Nc1ccc(Nc2cc(N3CCOCC3)c3nonc3c2[N+](=O)[O-])cc1
- AC50 [1]: 6.31 µM [falling, single point]

SMILES: CCN(CC)C(=O)C1CCCN(C(=O)Nc2ccccc2)C1 (centres undefined)
- AC50 [1]: 0.164 µM [falling, full curve, poor fit]

SMILES: NC(=O)c1ccc(-c2nnn(CC(=O)N(C3CCCC3)C3CCS(=O)(=O)C3)n2)cc1 (centres undefined)
- AC50 [1]: 6.51 µM [falling, partial curve]

SMILES: O=C(CSc1ccc([N+](=O)[O-])cn1)Nc1cc(C(F)(F)F)ccc1N1CCOCC1
- AC50 [1]: 11.2 µM [falling, partial curve, poor fit]

SMILES: CCOC(=O)N(C)c1ccc(C(O)(C(F)(F)F)C(F)(F)F)cc1
- AC50 [1]: 0.58 µM [rising, full curve, poor fit]
